According to US20120082626A1, “USE OF R-BAMBUTEROL AS INHALED MEDICAMENT AND COMBINATION THERAPIES FOR TREATMENT OF RESPIRATORY DISORDERS” (priority 2009, published 2012):
For at least one compound, name, drawing or mass did not settle the structure. Marks after values point to notes of the source that are not given here. Some of these results come from one statement about several compounds together.

What was measured:
[1] = cited from earlier work
[2] = test system: histamine evoked asthma in conscious guinea-pigs; assay: Histamine-evoked asthma in conscious guinea pigs after oral administration; type: in vivo, guinea pigs (Dunkin-Hartley strain); details: four hours before aerosol histamine, n=8
Experimental: (§1) Test methods: Guinea pigs (Dunkin-Hartley strain, 200±30 g) were fasted overnight but given water ad libidum. The animals were restrained individually in a glass chamber and exposed to aerosol histamine generated by a nebulizer from a 0.2% aqueous solution of histamine under constant pressure at dose of 0.5 ml/min for a period of 15 sec. The animal was removed from the chamber, and its behavior was monitored. Assign of collapse and the latency time from exposure to collapse were recorded. Only the animals with latency time less than 120 sec, as an indication of sensitive to histamine, were chosen for later experiments. The animals chosen were allowed to recover completely by resting for 24 hours before experiments. R-bambuterol and racemic bambuterol hydrochloride were dissolved in saline and nublized in a nebulizer.
Comparison of the anti-asthma effects of R-bambuterol (R-BM) and bambuterol (RS-BM) administered by oral and by inhalation in conscious guinea pigs. Test methods: same as Example 1.
Study of dose-response: Same as Example 1, except the following: four hours before the exposure to aerosol histamine, animals were randomized into groups (n=8, equal male and female), and given R-bambuterol hydrochloride or racemic bambuterol hydrochloride in doses of 1.0, 2.0, 4.0 and 8.0 mg/kg, and vehicle control, orally via a stomach tube.

[3] = test system: histamine evoked asthma in conscious guinea-pigs; assay: Time course of anti-asthma effects after oral administration or inhalation; type: in vivo
Experimental: The time course of the anti-asthma effects of R-bambuterol (R-BM) and bambuterol (RS-BM) after administered by oral and by inhalation. Test Methods: same as example 1 except the following:
For orally administration, R-Bambuterol hydrochloride or racemic bambuterol hydrochloride at 4 and 8 mg/kg, and vehicle alone, were administered to the guinea pigs orally via a stomach tube. Exposure of treated animals to aerosol histamine (as above) was done at 1, 4 and 12 hours after R-bambuterol or bambuterol treatment. For each experimental group, there were a total of 8 animals with equal number in sex, and no repeated exposure was made for individual experimental animals.
For inhalation, R-Bambuterol hydrochloride or racemic bambuterol hydrochloride at 0.252 and 0.504 mg/kg, and vehicle alone, were nebulized and administered to the guinea pigs by inhalation. Exposure of drug treated animals to aerosol histamine (as above) was done at 1,4 and 12 hours after drug treatment. For each experimental group, there were a total of 8 animals with equal number in sex, and no repeated exposure was made for individual experimental animals.

[4] = test system: histamine evoked asthma in conscious guinea-pigs; assay: Protection against histamine-evoked asthma by inhaled drug in conscious guinea pigs; type: in vivo, guinea pigs (Dunkin-Hartley strain); details: for (Collapsed)/No. in group: one hour before aerosol histamine, n=8; for Oral:Inhale ratio of maximum effective dose: oral dose vs inhaled dose for maximum anti-asthmatic effect
Experimental: as §1
Study of dose-response: One hours before the exposure to aerosol histamine, animals were randomized into groups (n=8, equal sex), and Nublized R-bambuterol hydrochloride or bambuterol hydrochloride in doses of 63, 126, 252 and 504 μg/kg, and vehicle control were inhaled by the animals via a mouth and nasal mask. The numbers of collapsed animal as a result of asthmatic reaction to aerosol histamine were counted, and the latency times were recorded. Both of these parameters were used as quantitative measurements of the protective effects of the treatments on bronchospasm evoked by aerosol histamine.

[5] = cited from earlier work; remark: listed apart in the source

Compound | bronchial dilation [1] | cardiac toxicity [1] | (Collapsed)/No. in group ([2]; oral 1.0 mg/Kg) | (Collapsed)/No. in group ([2]; oral 2.0 mg/Kg) | (Collapsed)/No. in group ([2]; oral 8.0 mg/Kg) | duration of the effects ([3]; inhalation) [h] | duration of the effects ([3]; oral administration) [h] | (Collapsed)/No. in group ([4]; inhaled 63 μg/Kg) | (Collapsed)/No. in group ([4]; inhaled 126 μg/Kg) | (Collapsed)/No. in group ([4]; inhaled 252 μg/Kg) | (Collapsed)/No. in group ([4]; inhaled 504 μg/Kg) | Oral:Inhale ratio of maximum effective dose [4] | Oral:Inhale ratio of maximum effective dose ([4]; listed as R-BM) | oral bio-availability [5]
CN(C)C(=O)Oc1cc(OC(=O)N(C)C)cc([C@H](O)CNC(C)(C)C)c1 [S-bambuterol] | inactive | more cardiac toxic than R-bambuterol |  |  |  |  |  |  |  |  |  |  |  | 
CN(C)C(=O)Oc1cc(OC(=O)N(C)C)cc([C@@H](O)CNC(C)(C)C)c1 [R-bambuterol] | active in bronchial dilation |  | (5)/8* | (2)/8**^▴▴ | (0)/8** | ≤ 24 | ≤ 24 | (7)/8 | (3)/8*^▴ | (0)/8**^▴▴ | (0)/8** | 16:1 | 16:1 | 60-70%
